Assay results taken from the supplement of paper PMC10849652.
The other results are listed elsewhere or left out.

Chains of the proteins cited; added tags and fusions are not shown. Lines headed by an entry give the natural chain unless they say otherwise; changes in a name come on top.
UniProt Q9NV06: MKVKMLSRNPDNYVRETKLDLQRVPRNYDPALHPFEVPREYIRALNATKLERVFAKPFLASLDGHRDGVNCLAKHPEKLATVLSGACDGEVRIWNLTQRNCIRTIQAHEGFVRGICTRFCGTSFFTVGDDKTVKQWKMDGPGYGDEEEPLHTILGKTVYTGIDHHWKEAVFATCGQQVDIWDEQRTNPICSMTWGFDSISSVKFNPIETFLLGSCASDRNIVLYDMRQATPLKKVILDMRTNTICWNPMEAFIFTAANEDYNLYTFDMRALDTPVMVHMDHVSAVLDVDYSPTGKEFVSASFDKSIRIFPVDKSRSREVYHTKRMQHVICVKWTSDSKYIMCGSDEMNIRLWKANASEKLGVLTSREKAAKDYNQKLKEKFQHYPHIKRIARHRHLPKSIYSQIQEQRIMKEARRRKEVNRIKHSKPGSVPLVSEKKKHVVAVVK
UniProt Q9UBU7: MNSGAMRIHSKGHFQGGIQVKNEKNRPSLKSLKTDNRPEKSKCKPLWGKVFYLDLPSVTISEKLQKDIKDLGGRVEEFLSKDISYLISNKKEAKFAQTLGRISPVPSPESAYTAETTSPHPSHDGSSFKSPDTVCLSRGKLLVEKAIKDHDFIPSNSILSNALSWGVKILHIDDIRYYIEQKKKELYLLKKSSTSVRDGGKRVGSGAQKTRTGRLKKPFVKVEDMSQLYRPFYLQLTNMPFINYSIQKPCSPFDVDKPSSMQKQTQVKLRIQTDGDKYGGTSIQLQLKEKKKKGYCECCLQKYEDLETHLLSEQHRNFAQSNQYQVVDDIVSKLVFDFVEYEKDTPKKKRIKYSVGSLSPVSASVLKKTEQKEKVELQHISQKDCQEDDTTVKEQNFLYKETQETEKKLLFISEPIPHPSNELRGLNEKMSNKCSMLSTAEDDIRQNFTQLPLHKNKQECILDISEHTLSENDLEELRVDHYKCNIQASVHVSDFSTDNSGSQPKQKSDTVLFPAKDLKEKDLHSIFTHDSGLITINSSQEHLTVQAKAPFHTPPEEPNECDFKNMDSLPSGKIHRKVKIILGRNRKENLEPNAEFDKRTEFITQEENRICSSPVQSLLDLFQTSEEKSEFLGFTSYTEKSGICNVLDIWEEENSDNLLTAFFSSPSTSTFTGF
UniProt O75140: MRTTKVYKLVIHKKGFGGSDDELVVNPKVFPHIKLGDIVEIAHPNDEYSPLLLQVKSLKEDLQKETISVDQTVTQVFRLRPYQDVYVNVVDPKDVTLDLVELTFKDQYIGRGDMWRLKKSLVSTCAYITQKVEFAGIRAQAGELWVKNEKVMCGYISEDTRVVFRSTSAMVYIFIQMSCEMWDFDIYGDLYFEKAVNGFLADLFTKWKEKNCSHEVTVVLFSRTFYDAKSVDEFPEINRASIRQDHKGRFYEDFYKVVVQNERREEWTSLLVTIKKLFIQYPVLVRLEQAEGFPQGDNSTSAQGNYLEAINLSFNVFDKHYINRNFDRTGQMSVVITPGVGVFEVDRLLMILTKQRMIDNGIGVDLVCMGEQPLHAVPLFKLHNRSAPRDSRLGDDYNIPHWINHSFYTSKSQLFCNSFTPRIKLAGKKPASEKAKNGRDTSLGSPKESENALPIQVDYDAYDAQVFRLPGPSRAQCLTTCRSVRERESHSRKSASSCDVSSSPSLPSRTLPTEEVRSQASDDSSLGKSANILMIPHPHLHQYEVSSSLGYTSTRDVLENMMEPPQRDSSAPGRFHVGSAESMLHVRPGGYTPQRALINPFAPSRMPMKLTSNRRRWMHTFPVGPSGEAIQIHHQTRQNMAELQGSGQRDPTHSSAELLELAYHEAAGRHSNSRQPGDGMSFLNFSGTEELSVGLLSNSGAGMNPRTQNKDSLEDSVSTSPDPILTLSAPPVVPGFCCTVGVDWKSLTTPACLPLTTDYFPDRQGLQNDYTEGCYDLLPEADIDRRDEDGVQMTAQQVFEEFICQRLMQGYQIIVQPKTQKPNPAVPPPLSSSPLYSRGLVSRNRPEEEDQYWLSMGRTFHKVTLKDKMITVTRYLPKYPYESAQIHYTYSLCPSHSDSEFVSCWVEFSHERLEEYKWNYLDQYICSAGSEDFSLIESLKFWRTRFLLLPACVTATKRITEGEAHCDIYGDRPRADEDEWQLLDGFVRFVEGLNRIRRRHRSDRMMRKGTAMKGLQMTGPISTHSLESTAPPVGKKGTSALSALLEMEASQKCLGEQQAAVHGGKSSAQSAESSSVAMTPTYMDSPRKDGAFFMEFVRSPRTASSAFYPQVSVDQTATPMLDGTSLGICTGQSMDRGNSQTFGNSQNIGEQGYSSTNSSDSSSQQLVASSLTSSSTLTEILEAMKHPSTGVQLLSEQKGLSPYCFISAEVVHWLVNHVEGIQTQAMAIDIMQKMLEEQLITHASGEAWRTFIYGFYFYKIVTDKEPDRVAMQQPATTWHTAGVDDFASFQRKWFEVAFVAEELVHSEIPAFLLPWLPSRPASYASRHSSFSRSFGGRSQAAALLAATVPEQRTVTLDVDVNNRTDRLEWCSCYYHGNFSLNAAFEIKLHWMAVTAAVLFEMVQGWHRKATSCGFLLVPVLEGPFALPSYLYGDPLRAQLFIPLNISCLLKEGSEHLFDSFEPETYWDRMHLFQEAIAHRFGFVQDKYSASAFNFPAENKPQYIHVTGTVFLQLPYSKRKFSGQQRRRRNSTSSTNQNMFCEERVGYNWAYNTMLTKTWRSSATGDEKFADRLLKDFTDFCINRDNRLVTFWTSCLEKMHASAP
UniProt Q99418: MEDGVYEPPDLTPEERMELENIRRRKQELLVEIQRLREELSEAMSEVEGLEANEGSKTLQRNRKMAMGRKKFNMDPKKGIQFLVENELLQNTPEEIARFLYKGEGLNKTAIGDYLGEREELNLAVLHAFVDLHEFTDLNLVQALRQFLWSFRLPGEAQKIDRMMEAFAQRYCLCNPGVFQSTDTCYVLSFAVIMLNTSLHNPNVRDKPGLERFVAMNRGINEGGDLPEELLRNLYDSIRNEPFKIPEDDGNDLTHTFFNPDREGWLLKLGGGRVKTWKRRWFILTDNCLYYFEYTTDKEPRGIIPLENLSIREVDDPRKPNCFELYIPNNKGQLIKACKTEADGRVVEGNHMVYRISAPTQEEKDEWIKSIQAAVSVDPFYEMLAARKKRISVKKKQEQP
UniProt Q5TDH0: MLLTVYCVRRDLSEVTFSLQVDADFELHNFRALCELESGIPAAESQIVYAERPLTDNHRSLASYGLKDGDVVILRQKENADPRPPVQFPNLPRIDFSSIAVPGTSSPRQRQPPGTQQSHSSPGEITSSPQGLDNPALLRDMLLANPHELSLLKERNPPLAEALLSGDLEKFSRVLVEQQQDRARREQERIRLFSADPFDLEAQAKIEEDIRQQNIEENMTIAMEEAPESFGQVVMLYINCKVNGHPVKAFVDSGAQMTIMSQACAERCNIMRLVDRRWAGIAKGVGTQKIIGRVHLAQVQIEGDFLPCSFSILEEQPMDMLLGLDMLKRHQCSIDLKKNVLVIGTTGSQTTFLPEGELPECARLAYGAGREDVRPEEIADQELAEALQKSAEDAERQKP
UniProt P53355: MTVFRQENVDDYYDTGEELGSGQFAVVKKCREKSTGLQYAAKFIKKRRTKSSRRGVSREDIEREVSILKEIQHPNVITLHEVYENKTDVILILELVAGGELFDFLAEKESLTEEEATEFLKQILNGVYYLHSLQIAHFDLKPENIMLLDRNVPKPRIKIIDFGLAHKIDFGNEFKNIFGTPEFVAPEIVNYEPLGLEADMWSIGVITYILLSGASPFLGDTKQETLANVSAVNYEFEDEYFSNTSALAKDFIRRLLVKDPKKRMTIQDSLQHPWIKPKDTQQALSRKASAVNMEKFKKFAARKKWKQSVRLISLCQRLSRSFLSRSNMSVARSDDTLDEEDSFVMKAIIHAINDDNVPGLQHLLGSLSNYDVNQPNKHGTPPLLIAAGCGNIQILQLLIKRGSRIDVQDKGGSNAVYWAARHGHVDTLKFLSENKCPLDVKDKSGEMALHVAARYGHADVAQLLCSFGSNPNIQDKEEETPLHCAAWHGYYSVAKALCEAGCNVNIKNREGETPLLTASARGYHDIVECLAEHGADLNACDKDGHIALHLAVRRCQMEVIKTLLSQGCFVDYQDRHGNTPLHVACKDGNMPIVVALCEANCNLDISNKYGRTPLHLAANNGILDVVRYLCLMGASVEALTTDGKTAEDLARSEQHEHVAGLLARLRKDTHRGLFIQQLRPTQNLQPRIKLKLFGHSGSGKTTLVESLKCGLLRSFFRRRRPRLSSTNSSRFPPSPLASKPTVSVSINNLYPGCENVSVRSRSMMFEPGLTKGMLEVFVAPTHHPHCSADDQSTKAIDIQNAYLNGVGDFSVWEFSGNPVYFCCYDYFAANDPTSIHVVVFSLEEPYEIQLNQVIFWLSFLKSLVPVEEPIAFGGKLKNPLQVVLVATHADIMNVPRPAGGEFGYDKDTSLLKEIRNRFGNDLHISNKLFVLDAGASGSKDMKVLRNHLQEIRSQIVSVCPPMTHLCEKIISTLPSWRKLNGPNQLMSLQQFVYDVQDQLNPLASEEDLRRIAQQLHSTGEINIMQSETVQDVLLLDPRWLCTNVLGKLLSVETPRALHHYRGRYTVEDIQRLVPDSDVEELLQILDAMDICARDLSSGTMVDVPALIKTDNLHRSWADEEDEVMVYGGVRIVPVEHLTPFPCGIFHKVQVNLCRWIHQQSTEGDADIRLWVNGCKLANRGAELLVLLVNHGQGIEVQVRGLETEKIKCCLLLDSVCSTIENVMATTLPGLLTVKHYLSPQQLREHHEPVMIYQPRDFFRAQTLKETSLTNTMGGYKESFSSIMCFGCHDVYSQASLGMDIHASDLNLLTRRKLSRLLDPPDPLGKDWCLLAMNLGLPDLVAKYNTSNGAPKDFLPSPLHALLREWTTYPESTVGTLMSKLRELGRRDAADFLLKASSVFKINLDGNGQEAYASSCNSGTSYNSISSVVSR
UniProt Q9H9R9: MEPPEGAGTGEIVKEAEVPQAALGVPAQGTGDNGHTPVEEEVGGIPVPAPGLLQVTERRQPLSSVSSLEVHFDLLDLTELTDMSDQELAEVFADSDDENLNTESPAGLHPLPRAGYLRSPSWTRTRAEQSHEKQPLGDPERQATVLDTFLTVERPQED
UniProt Q15438: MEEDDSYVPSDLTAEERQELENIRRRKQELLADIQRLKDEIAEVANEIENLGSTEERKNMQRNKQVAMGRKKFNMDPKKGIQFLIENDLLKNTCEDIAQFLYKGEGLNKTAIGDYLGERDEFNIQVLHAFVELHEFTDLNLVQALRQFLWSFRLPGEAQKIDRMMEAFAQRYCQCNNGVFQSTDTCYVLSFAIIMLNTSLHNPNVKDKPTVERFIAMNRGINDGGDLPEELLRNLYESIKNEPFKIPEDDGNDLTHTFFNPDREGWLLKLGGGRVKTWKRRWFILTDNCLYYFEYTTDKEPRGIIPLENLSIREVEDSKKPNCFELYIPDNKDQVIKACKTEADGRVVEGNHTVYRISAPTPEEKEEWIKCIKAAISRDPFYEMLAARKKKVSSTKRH
UniProt Q9BWK5: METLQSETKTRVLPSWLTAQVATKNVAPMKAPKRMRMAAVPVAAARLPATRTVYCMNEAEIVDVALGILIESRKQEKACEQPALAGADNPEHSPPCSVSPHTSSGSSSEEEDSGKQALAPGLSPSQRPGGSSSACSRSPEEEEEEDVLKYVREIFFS
UniProt Q6P3S1: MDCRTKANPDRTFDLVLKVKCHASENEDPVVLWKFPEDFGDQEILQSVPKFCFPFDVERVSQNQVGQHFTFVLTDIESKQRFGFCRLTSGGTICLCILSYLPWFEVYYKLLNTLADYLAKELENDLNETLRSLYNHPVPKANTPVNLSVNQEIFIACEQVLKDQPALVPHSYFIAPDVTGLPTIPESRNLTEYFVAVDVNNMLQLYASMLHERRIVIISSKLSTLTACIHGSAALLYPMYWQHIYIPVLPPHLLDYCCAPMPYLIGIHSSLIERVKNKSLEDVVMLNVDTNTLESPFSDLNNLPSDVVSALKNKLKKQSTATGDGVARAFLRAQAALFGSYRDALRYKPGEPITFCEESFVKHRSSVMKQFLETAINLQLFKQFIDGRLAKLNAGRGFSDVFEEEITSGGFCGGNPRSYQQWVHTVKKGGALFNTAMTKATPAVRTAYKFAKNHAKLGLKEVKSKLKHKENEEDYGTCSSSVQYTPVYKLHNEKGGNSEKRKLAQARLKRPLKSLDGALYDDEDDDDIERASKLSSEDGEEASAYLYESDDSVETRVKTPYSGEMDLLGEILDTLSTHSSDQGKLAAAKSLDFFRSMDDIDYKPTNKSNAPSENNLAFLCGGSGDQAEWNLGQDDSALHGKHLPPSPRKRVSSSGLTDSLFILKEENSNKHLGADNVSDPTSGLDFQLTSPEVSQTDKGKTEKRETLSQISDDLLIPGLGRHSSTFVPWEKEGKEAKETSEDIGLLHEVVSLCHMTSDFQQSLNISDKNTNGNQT

How the values were obtained:
Assay in all cases: log2 fold change, soluble protein after heating vs DMSO (PISA); higher = thermal stabilisation; K562 lysate, 10 uM; active = over 0.2 and 3.5 SD of the protein, either way, in both replicates (recomputed)
alvocidib = compound: CN1CC[C@H](c2c(O)cc(O)c3c(=O)cc(-c4ccccc4Cl)oc23)[C@H](O)C1 [alvocidib]
Procedure, shortened: (§1)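 K562 pellets were dounce-homogenised in PBS pH 7.4 containing 1 mM MgCl2, and the crude extract, at 1 mg/mL protein, was exposed to 10 μM compound for 30 min. Aliquots were heated for 3 min across 48°C-58°C, pooled, brought to 0.5% NP-40 at 4°C and spun at 21,000xg for 90 min, with the supernatant taken as soluble protein. TMTpro 16plex LC-MS/MS with equalised channel sums quantified that protein. Values are log-two fold changes in thermal stability relative to solvent controls, taken from duplicates.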

Tubastatin A = compound: CN1CCc2c(c3ccccc3n2Cc2ccc(C(=O)NO)cc2)C1 [Tubastatin A]
Procedure, shortened: as §1

[1] = compound: CNC(=O)C1=CC=CC=C1NC2=NC(=NC=C2Cl)NC3=C(C=C(C=C3)N4CCOCC4)OC
Procedure, shortened: as §1

defactinib = compound: CNC(=O)c1ccc(Nc2ncc(C(F)(F)F)c(NCc3nccnc3N(C)S(C)(=O)=O)n2)cc1 [defactinib]
Procedure, shortened: as §1

[2] = compound: CNc1nc(-c2ccc3c(N)n[nH]c3c2)cc(N2C[C@@H](C(=O)NC3CCCCC3)CC[C@H]2C)n1
Procedure, shortened: as §1

encorafenib = compound: COC(=O)N[C@@H](C)CNc1nccc(-c2cn(C(C)C)nc2-c2cc(Cl)cc(NS(C)(=O)=O)c2F)n1 [encorafenib]
Procedure, shortened: as §1

[3] = compound: COC(=O)[C@H](CCSC)NC(=O)C1=C(C=C(C=C1)NC[C@H](CS)N)C2=CC=CC=C2
Procedure, shortened: as §1

alisertib = compound: COc1cc(Nc2ncc3c(n2)-c2ccc(Cl)cc2C(c2c(F)cccc2OC)=NC3)ccc1C(=O)O [alisertib]
Procedure, shortened: as §1

[4] = compound: COc1cc2nc(-c3cc(F)ccc3O)nc(N[C@@H]3CNC[C@H]3C(C)(C)O)c2cc1OC
Procedure, shortened: as §1

gefitinib = compound: COc1cc2ncnc(Nc3ccc(F)c(Cl)c3)c2cc1OCCCN1CCOCC1 [gefitinib]
Procedure, shortened: as §1

lapatinib = compound: CS(=O)(=O)CCNCc1ccc(-c2ccc3ncnc(Nc4ccc(OCc5cccc(F)c5)c(Cl)c4)c3c2)o1 [lapatinib]
Procedure, shortened: as §1

pictilisib = compound: CS(=O)(=O)N1CCN(Cc2cc3nc(-c4cccc5[nH]ncc45)nc(N4CCOCC4)c3s2)CC1 [pictilisib]
Procedure, shortened: as §1

crizotinib = compound: C[C@@H](Oc1cc(-c2cnn(C3CCNCC3)c2)cnc1N)c1c(Cl)ccc(F)c1Cl [crizotinib]
Procedure, shortened: as §1

[5] = compound: C[C@H](C1=CC=C(C=C1)C(=O)NC2=C3C=CNC3=NC=C2)N
Procedure, shortened: as §1

duvelisib = compound: C[C@H](Nc1ncnc2nc[nH]c12)c1cc2cccc(Cl)c2c(=O)n1-c1ccccc1 [duvelisib]
Procedure, shortened: as §1

gandotinib = compound: Cc1cc(Nc2cc(CN3CCOCC3)c3nc(C)c(Cc4ccc(Cl)cc4F)n3n2)n[nH]1 [gandotinib]
Procedure, shortened: as §1

tozasertib = compound: Cc1cc(Nc2cc(N3CCN(C)CC3)nc(Sc3ccc(NC(=O)C4CC4)cc3)n2)n[nH]1 [tozasertib]
Procedure, shortened: as §1

doramapimod = compound: Cc1ccc(-n2nc(C(C)(C)C)cc2NC(=O)Nc2ccc(OCCN3CCOCC3)c3ccccc23)cc1 [doramapimod]
Procedure, shortened: as §1

bafetinib = compound: Cc1ccc(NC(=O)c2ccc(CN3CC[C@H](N(C)C)C3)c(C(F)(F)F)c2)cc1Nc1nccc(-c2cncnc2)n1 [bafetinib]
Procedure, shortened: as §1

[6] = compound: Cc1cccc(CC(=O)N2CCc3c2ccc(-c2cn(C)c4ncnc(N)c24)c3F)n1
Procedure, shortened: as §1

Row | Target | log2 fold change (alvocidib) | log2 fold change (Tubastatin A) | log2 fold change [1] | log2 fold change (defactinib) | log2 fold change [2] | log2 fold change (encorafenib) | log2 fold change [3] | log2 fold change (alisertib) | log2 fold change [4] | log2 fold change (gefitinib) | log2 fold change (lapatinib) | log2 fold change (pictilisib) | log2 fold change (crizotinib) | log2 fold change [5] | log2 fold change (duvelisib) | log2 fold change (gandotinib) | log2 fold change (tozasertib) | log2 fold change (doramapimod) | log2 fold change (bafetinib) | log2 fold change [6]
1 | DCAF13 (UniProt Q9NV06) | inactive: -0.029 | inactive: 0.049 | inactive: 0.037 | inactive: 0.068 | inactive: 0.01 | inactive: 0.058 | inactive: 0.064 | inactive: 0.025 | inactive: -0.022 | inactive: 0.012 | inactive: -0.047 | inactive: -0.042 | inactive: 0.025 | inactive: 0.033 | inactive: 0.015 | inactive: 0.012 | inactive: 0.029 | inactive: 0.011 | inactive: -0.052 | inactive: -0.04
2 | DBF4 (UniProt Q9UBU7) | inactive: -0.118 | inactive: -0.072 | inactive: -0.025 | inactive: -0.023 | inactive: -0.058 | inactive: 0.04 | inactive: -0.072 | inactive: -0.028 | – | inactive: -0.029 | – | inactive: 0 | inactive: -0.031 | active: -0.409 | inactive: 0.004 | inactive: 0.059 | inactive: -0.009 | inactive: -0.018 | inactive: -0.028 | inactive: 0.035
3 | DEPDC5 (UniProt O75140) | inactive: 0.038 | – | inactive: -0.083 | inactive: 0.038 | – | – | – | inactive: -0.165 | – | inactive: 0.052 | – | inactive: 0.014 | – | inactive: -0.01 | – | inactive: -0.032 | – | – | inactive: -0.042 | inactive: -0.01
4 | DCBLD2 isoform 2 (UniProt Q96PD2) | inactive: -0.092 | inactive: 0.101 | – | – | inactive: -0.157 | – | – | – | inactive: -0.031 | – | inactive: -0.029 | – | – | inactive: -0.065 | inactive: 0.133 | inactive: -0.055 | – | – | – | inactive: 0.06
5 | CYTH2 (UniProt Q99418) | inactive: -0.041 | inactive: -0.054 | inactive: -0.023 | – | inactive: -0.043 | inactive: 0.022 | inactive: -0.153 | inactive: -0.03 | inactive: 0.011 | inactive: -0.007 | inactive: -0.026 | inactive: -0.089 | – | inactive: 0.056 | inactive: -0.089 | inactive: 0.025 | inactive: -0.061 | – | inactive: 0.025 | inactive: 0.023
6 | DDI2 isoform 3 (UniProt Q5TDH0) | inactive: -0.007 | inactive: 0.034 | inactive: -0.013 | inactive: 0.004 | inactive: 0 | inactive: 0.007 | inactive: 0.016 | inactive: 0.006 | inactive: 0.004 | inactive: -0.023 | inactive: 0.004 | inactive: -0.002 | inactive: 0.001 | inactive: -0.013 | inactive: 0.004 | inactive: 0.007 | inactive: -0.029 | inactive: -0.001 | inactive: 0.023 | inactive: -0.042
7 | DAPK1 isoform 3 (UniProt P53355) | inactive: 0.085 | inactive: 0.001 | inactive: 0.322 | inactive: -0.109 | inactive: 0.058 | – | – | inactive: 0.051 | inactive: 0.063 | inactive: 0.139 | inactive: 0.042 | – | inactive: 0.022 | inactive: 0.188 | inactive: 0.042 | inactive: 0.058 | – | inactive: -0.141 | – | inactive: -0.383
8 | DBNDD1 isoform 3 (UniProt Q9H9R9) | inactive: -0.045 | inactive: -0.037 | inactive: 0.047 | – | inactive: 0.02 | inactive: -0.123 | inactive: 0.081 | inactive: 0.056 | inactive: -0.116 | inactive: -0.224 | inactive: 0.05 | – | inactive: -0.081 | inactive: -0.063 | inactive: 0.018 | inactive: 0.073 | inactive: 0.162 | inactive: 0.041 | – | inactive: -0.024
9 | CYTH1 (UniProt Q15438) | inactive: -0.076 | inactive: 0.067 | inactive: -0.026 | – | – | inactive: 0.023 | inactive: 0.01 | inactive: -0.08 | inactive: -0.084 | inactive: -0.227 | inactive: 0.145 | inactive: -0.031 | inactive: 0.029 | inactive: -0.017 | – | inactive: 0.022 | inactive: -0.077 | inactive: -0.013 | inactive: -0.052 | inactive: 0.089
10 | CYREN isoform 4 (UniProt Q9BWK5) | inactive: 0.046 | inactive: 0.099 | inactive: 0.161 | – | inactive: 0.103 | – | – | inactive: -0.127 | – | inactive: -0.063 | – | – | inactive: -0.088 | inactive: 0 | inactive: -0.037 | inactive: -0.059 | – | inactive: 0.065 | – | inactive: 0.034
11 | DENND1B (UniProt Q6P3S1) | inactive: 0.074 | inactive: 0.152 | inactive: -0.105 | inactive: 0.099 | inactive: 0.023 | – | – | inactive: -0.146 | inactive: -0.226 | inactive: -0.102 | inactive: 0.1 | inactive: 0.096 | inactive: -0.019 | inactive: 0.003 | inactive: -0.08 | inactive: -0.194 | – | inactive: -0.072 | inactive: 0.154 | inactive: -0.03

Single values from the list:
CYREN isoform 4 (UniProt Q9BWK5) | log2 fold change [2]: inactive: 0.103
DCBLD2 isoform 2 (UniProt Q96PD2) | log2 fold change (lapatinib): inactive: -0.029
